Measured values: patent US20090023640A1, “Use Of A Cyclic Undecapeptide For The Preparation Of A Medicament For Administration During Myocardial Ischaemic Events” (priority 2005, published 2009)
Part of at least one peptide drawing is inferred or uncertain, most often the ends.

Assays:
[1] = tested on: myocardial infarction (ischemia-reperfusion); experiment: Model of ischemia-reperfusion in the mouse, post-infarction period (infarction size, ventricular remodeling, survival); assay type: in vivo
[2] = tested on: myocardial infarction (ischemia-reperfusion); experiment: Model of ischemia-reperfusion in the rabbit, cardioprotective effect; assay type: in vivo

C/C=C/C[C@@H](C)[C@@H](O)[C@H]1C(=O)N[C@@H](CC)C(=O)N(C)[C@@H](C)C(=O)N(CC)[C@@H](C(C)C)C(=O)N[C@@H](C(C)C)C(=O)N(C)[C@@H](CC(C)C)C(=O)N[C@@H](C)C(=O)N[C@H](C)C(=O)N(C)[C@@H](CC(C)C)C(=O)N(C)[C@@H](CC(C)C)C(=O)N(C)[C@@H](C(C)C)C(=O)N1C [[MeAla]^3-[EtVal]^4-CsA, -MeBmt-αAbu-MeAla-EtVal-Val-MeLeu-Ala-(D)Ala-MeLeu-MeLeu-MeVal-]
Left ventricular ejection fraction ± SD ([1]; 10 mg/kg i.v. 3 minutes before ligature release, Doppler echocardiography 4 weeks after reperfusion): 77 ± 6% | decrease in the size of the infarction in the zone at risk ([1]; 10 mg/kg i.v. 3 minutes before reperfusion, 24 hours after reperfusion, versus carrier (table 2)): ~50% | Infarction size (AN/AR ± SD) ([1]; 25 min occlusion, single i.v. injection at 10 mg/kg 3 minutes before ligature release, 24 hours after reperfusion): 32.1 ± 7.3% | decrease in the size of the infarction in the zone at risk compared with pharmaceutical carrier ([2]; 20 mg/kg i.v. one minute before reperfusion, 4 hours after reperfusion): ~40% | Infarction size (AN/AR ± SD) ([2]; 30 min occlusion, single i.v. injection of 20 mg/kg one minute before ligature release, measured 4 hours after reperfusion): 29 ± 6.0%
